Data as given in PubChem BioAssay AID1508597 (Cure First, 2020).

Aim: 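Genes whose silencing sensitises or protects ovarian cancer cells against rucaparib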 (primary screen)
Cells: human ovarian carcinoma lines grown from tumours: OCI-P5x (papillary serous) and OCI-C5x (clear cell)
Knock-down reagent: siRNA pool against human genes, 1.25 pmol siRNA per well
Time to read-out: 72 h or 96 h, depending on the cell culture
Conditions: rucaparib 20 µM (about IC30) or vehicle, present until read-out
Rucaparib or vehicle: Rucaparib
Cell line: OCI-P5x (serous)
Read-out: 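ATP luminescence measured at 72 or 96 h according to the culture, then normalised and expressed as percent viability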
Scale: viability, normalised: higher = more viable cells remaining
Rule for the call: 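Active when normalised viability falls below 80 percent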
Calls: active = viability under 80%; inactive = viability 80% or more
This is a random part of the about 2,100 reagents, in one setting of the screen. 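Calls flag viability under 80% in either arm, not effects specific to rucaparib; the reference for percent is not stated.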 Entries without a mark were called inactive. Some reagents were tested in more than one well and are listed for each. The record does not give: the 100% reference.

| Target gene | technical replicate | viability, normalised (%) |
| --- | --- | --- |
| EME2 (GeneID 197342) | 1 | 116 |
| EME2 (GeneID 197342) | 2 | 107 |
| EME2 (GeneID 197342) | 3 | 113 |
| ALPK2 (GeneID 115701) | 1 | 129 |
| ALPK2 (GeneID 115701) | 2 | 118 |
| ALPK2 (GeneID 115701) | 3 | 131 |
| CSK (GeneID 1445) | 1 | 67 (active) |
| CSK (GeneID 1445) | 2 | 37.1 (active) |
| CSK (GeneID 1445) | 3 | 24.7 (active) |
| TPD52 (GeneID 7163) | 1 | 62 (active) |
| TPD52 (GeneID 7163) | 2 | 63.8 (active) |
| TPD52 (GeneID 7163) | 3 | 51.1 (active) |
| AICDA (GeneID 57379) | 1 | 85.7 |
| AICDA (GeneID 57379) | 2 | 70.8 (active) |
| AICDA (GeneID 57379) | 3 | 77 (active) |
| NSD2 (GeneID 7468) | 1 | 55.1 (active) |
| NSD2 (GeneID 7468) | 2 | 53.5 (active) |
| NSD2 (GeneID 7468) | 3 | 35.8 (active) |
| CA14 (GeneID 23632) | 1 | 70.4 (active) |
| CA14 (GeneID 23632) | 2 | 64.8 (active) |
| CA14 (GeneID 23632) | 3 | 50.5 (active) |
| PTTG1 (GeneID 9232) | 1 | 44.9 (active) |
| PTTG1 (GeneID 9232) | 1 | 66.6 (active) |
| PTTG1 (GeneID 9232) | 2 | 61.2 (active) |
| PTTG1 (GeneID 9232) | 2 | 80.7 |
| PTTG1 (GeneID 9232) | 3 | 60.5 (active) |
| PTTG1 (GeneID 9232) | 3 | 57.1 (active) |
| PHKB (GeneID 5257) | 1 | 99.4 |
| PHKB (GeneID 5257) | 2 | 93.4 |
| PHKB (GeneID 5257) | 3 | 49.4 (active) |
| EID2 (GeneID 163126) | 1 | 55.4 (active) |
| EID2 (GeneID 163126) | 2 | 49.8 (active) |
| EID2 (GeneID 163126) | 3 | 49.9 (active) |
| DUSP1 (GeneID 1843) | 1 | 66.4 (active) |
| DUSP1 (GeneID 1843) | 2 | 65 (active) |
| DUSP1 (GeneID 1843) | 3 | 71.4 (active) |
| FYN (GeneID 2534) | 1 | 87.4 |
| FYN (GeneID 2534) | 2 | 79.7 (active) |
| FYN (GeneID 2534) | 3 | 77.3 (active) |
| LMTK3 (GeneID 114783) | 1 | 80 (active) |
| LMTK3 (GeneID 114783) | 2 | 84 |
| LMTK3 (GeneID 114783) | 3 | 76.1 (active) |
| CD79A (GeneID 973) | 1 | 72.8 (active) |
| CD79A (GeneID 973) | 2 | 65.7 (active) |
| CD79A (GeneID 973) | 3 | 59.9 (active) |
| RBBP4 (GeneID 5928) | 1 | 52.9 (active) |
| RBBP4 (GeneID 5928) | 2 | 58.6 (active) |
| RBBP4 (GeneID 5928) | 3 | 54.2 (active) |
| WEE2 (GeneID 494551) | 1 | 55.9 (active) |
| WEE2 (GeneID 494551) | 1 | 84 |
| WEE2 (GeneID 494551) | 2 | 74.3 (active) |
| WEE2 (GeneID 494551) | 2 | 66.2 (active) |
| WEE2 (GeneID 494551) | 3 | 47.9 (active) |
| WEE2 (GeneID 494551) | 3 | 93.1 |
| RSF1 (GeneID 51773) | 1 | 57.6 (active) |
| RSF1 (GeneID 51773) | 2 | 68.7 (active) |
| RSF1 (GeneID 51773) | 3 | 50.7 (active) |

Quoted from above, 9 entries:
| Target gene | technical replicate | viability, normalised (%) |
| --- | --- | --- |
| EME2 (GeneID 197342) | 1 | 116 |
| EME2 (GeneID 197342) | 2 | 107 |
| EME2 (GeneID 197342) | 3 | 113 |
| ALPK2 (GeneID 115701) | 1 | 129 |
| ALPK2 (GeneID 115701) | 2 | 118 |
| ALPK2 (GeneID 115701) | 3 | 131 |
| CSK (GeneID 1445) | 1 | 67 (active) |
| CSK (GeneID 1445) | 2 | 37.1 (active) |
| CSK (GeneID 1445) | 3 | 24.7 (active) |
